We go through 104 sequences from PubChem BioAssay AID1347423 (Functional Genomics Laboratory (NCATS/FGL), 2020).

Screen size: about 52,000 sequences; about 210 (0.4%) were called active.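 Rule for the calls: active = gene whose silencing raises cell survival under the drug, median off-target-corrected z-score across its silencing RNAs 2 or more; inactive = the rest.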 The list shows a part of the results.

This assay is described as follows: Resistance to Poly (ADP-Ribose) Polymerase inhibitor: Gene Identification via Genome-wide siRNA Screen. To be noted: mouse BRCA2 R2336H ES cells, olaparib, CellTiter-Glo viability; hits give high values. The gist of the method:
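Mouse BRCA2 R2336H ES cells were reverse-transfected with siRNA (20 nM final), treated at 48 h with 500 nM olaparib, and read by CellTiter-Glo after 72 h. Scores: MAD-based z per siRNA, median per gene, seed off-target correction.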
(ATP-based viability assays read luminescence as a measure of living cells.)
Turning to GCCAUACGCUGACCUUUCATT against Sp7, the z-score was inactive: 3.
The figure for GGGUGAUUUCUAUUCACUATT against Pam is inactive: 0.47; for GGAAUUCAGCGAUUUAUACTT against Smox it is inactive: 1.41.
The figure for “GGUCACGUCAGCAAAGCAATT against B930095G15Rik” is inactive: -0.384; for GCCACAAGUAGUUGUGGUATT against Akr1c20 it is inactive: 0.699; for GGACCCUCUGGAUUAAUCGTT against Mrpl20 it is inactive: 1.
The figure for GGAAUUGGGUAGUACAAAATT against Irak1 is inactive: 0.537; for “GGAAGAUCCCAGAAUUAACTT against 3110038B19Rik” it is inactive: 0.715.
With “CCCUAUUAGUGGAAGCAUGTT against 6720487G11Rik”, the z-score was inactive: 0.0848.
The same measure for GGAAAAAGAGAAGACCUGCTT against AI836376: inactive: -0.178; for CGAUCCAUUUCCUUACGACTT against Cyp20a1: inactive: -0.493; for GGACAUCAACAUUAUCACUTT against Chn1: inactive: 0.269.
The same measure for GGCAAAAUAAGGAGCUAGATT against Itpkc: inactive: 0.618; for CGAAUGUUCGAGGUUUAUUTT against Ctdspl: inactive: 1.27; for CCAUGGUCCUUGUCGUCAUTT against Kir3dl1: inactive: 2.36.
For the sequence GGCCUGUAAAAACUAUUGGTT against Mcpt4, the z-score is inactive: -0.339.
As for GGGCAUGAGAAAUCCACAGTT against Psx2, the z-score is inactive: 0.121.
Regarding “GGAGCAAUCUGUUAAACUATT against B130052G07Rik”, the z-score was inactive: -0.7.
The figure for GGUGGUUGAAGAAAUGGCUTT against Timm8a is inactive: 0.481.
Regarding GCACAUUGGCAUUGUGUAUTT against Pdxk, the z-score was inactive: 1.38.
The same measure for GCCCUUAACAGAAAAACUATT against Hmgcl: inactive: 0.453; for GGACUGAUUGUUUUAUGCUTT against Gdap10: inactive: 0.496; for GGAAAAACGUGGUGAACUATT against Zfhx1b: inactive: -0.407.
The figure for “GGACUUGGUGGUAAUCGACTT against A530089I17Rik” is inactive: -1.07.
The same measure for “GGAGCUACCUCUGGAUACATT against 4930538K18Rik”: inactive: 1.2.
With GCCAAUUGAGUCGUCUAUCTT against Rps6ka1, the z-score was inactive: -0.981.
The figure for CGAGUUCCACAGUGAAAUATT against Cyp2c70 is inactive: -0.426; for GCGGUGCUGUUUUCCUUAUTT against Dpagt1 it is inactive: 0.952; for GCAUCCUUGACCGAUACUATT against Psmb2 it is inactive: -3.34.
Regarding GGAAUACAAAUUCAAGAUCTT against AF119384, the z-score was inactive: 0.952.
The same measure for CCAGCUUUCAUUAACUUUATT against Ppp1r10: inactive: 0.108.
The figure for GCAACCAUUUAAGAAGACCTT against Tnfrsf9 is inactive: -0.205; for GGUGAUGAAAAGAAUUGCATT against Pitrm1 it is inactive: -0.479; for GCGUAUCAAGAAUUUGUCCTT against Mtus1 it is inactive: 1.88.
The same measure for CCUGAGAAAACUUCUUACUTT against Maged1: inactive: -0.318; for GGCGGAUACUUGAUCGAAATT against Sec6l1: inactive: 0.113.
GCAGGUUUACCAGUUUUUCTT against Lmo6: the z-score was inactive: 0.389.
The figure for “GGAAAGUCACUCCUUAUAUTT against 5830483C08Rik” is inactive: -0.893.
Regarding CCAAAAAGAGCGAUUACCCTT against Shc1, the z-score was inactive: 2.4.
The same measure for GGAAAAAAACCGCUAUGUATT against Ptpra: inactive: 0.294; for GGGAAGAUUUUUCUGAUCUTT against Kcnk13: inactive: 0.351; for CCCUUUAUUAUUCCACUGUTT against Olfr530: inactive: -1.09.
For the sequence GGAACAACUUUCAUCUCACTT against Anxa10, the z-score was inactive: -0.888.
The figure for “GGGAACAUGUGGAAGUAUGTT against 2410091C18Rik” is inactive: -1.17; for GGUGAAAGCAGCCAUUAAATT against Akr1a4 it is inactive: -1.05.
The figure for GCCUGGUCUCACUAUGUAGTT against Hpvc2 is inactive: 0.728; for GGCAAAAAGUCAUUGCCAATT against Slc26a9 it is inactive: -0.775.
The same measure for “GGGUGCUGAAAUGAAGCAUTT against G430090F17Rik”: inactive: -0.427; for GGAAAAGAAGAGGAUGGAGTT against Vpreb1: inactive: -0.713; for GCUUCAGACGUAAUUUACUTT against Morc: inactive: 0.334.
For the sequence UCUGCGCACUAAAUGCAUCTT against Olfr46, the z-score was inactive: -0.406.
The figure for CGAAGGAUUCUUUUGUACUTT against Mib1 is inactive: 1.85; for “GCCAUAGCCAAUGAAUAUGTT against 2810405J04Rik” it is inactive: 0.464.
The same measure for GGAAUUUUAUCCUGUAUGCTT against D4Ertd89e: inactive: 0.37; for GGCGUAUUCUGGUAUCCAGTT against Cugbp1: inactive: 1.35; for GCAAAGAUAACAGUAUGUUTT against Grinl1a: inactive: 0.651.
The figure for GGAAAUAGAGAAGAAAUUGTT against Nelf is inactive: 0.688.
“GGACAACUCAAUUCUAAAATT against 4921522P10Rik”: the z-score is inactive: 0.276.
On to “CCGCCAAAGAUUUUAACCCTT against 1810055E12Rik”, for which the z-score is inactive: 0.809.
Consider GCUUGAUGGACAGUGACGATT against Dhrs3, for which the z-score is inactive: 1.13.
The figure for GGAACUGCAUCUGCACUAATT against Olfr683 is inactive: 1.07.
The figure for GGCAUUCAUGACAAUGGCUTT against Rab1b is inactive: 3.73; for GGAUGAUGAAAACAAAGAATT against Skp1a it is inactive: -0.359.
The same measure for CCACGCUCUCAAGGUAUAGTT against Cyp2d22: inactive: -0.175.
For CCCGAAUCUCAGCGUAGAATT against MGC5739, the z-score is inactive: 0.777.
The same measure for CUAUCUGACCAUAAUGAAATT against Olfr1248: inactive: 0.231.
As for “GCUGUUCUAAUUCAUAAACTT against A230072I16Rik”, the z-score is inactive: 0.29.
Consider GGCACCUAUCACAUCUAUCTT against Tex21, for which the z-score is inactive: -1.37.
For CGAGUGUAAUGUGGUGGAATT against Npm3, the z-score was inactive: -0.74.
In the case of “GGUACGAAGGAAAAUUUACTT against 2810407A14Rik”, the z-score was inactive: 1.59.
The same measure for GCUCGACCAAAAAACAACCTT against Emilin2: inactive: 0.471.
The figure for GCUCAAAGGACCUCUGAGCTT against Slc29a2 is inactive: 0.486; for CCAAUUCACUUAGGAGCUGTT against Psma4 it is inactive: -3.66; for GGUGCUCUCAGGAAAGUUGTT against Olfr1157 it is inactive: -0.759.
The figure for GGGUCAUCCAAAUGGUUUGTT against Grm6 is inactive: 1.44; for CCGUUCACAAGAAUUACACTT against Grb2 it is inactive: -0.0623.
In the case of GCACUGUGAAUUUGUCAUUTT against Umps, the z-score is inactive: -0.00503.
As for GGAAACAGAAUGGAGUAAUTT against Rev1l, the z-score is inactive: 0.0758.
For the sequence “GGUGUCAGCUUACCAUUCATT against 1810015M01Rik”, the z-score is inactive: 1.26.
The figure for “CGGAUUCACAAGAACACCUTT against 4732496O08Rik” is inactive: 2.3; for GGUCGUAAAAAUUGAAAUCTT against Lhcgr it is inactive: 0.189; for “GGGUUCUAGGUUGUUUAUGTT against 4932409I22Rik” it is inactive: 0.485.
Regarding GGCCAAGAUGACCAUCUCUTT against Cspg4, the z-score is inactive: -0.996.
Turning to GGUUCAAGAAGUUUUGCUCTT against Tnfrsf9, the z-score was inactive: 0.165.
On to GGGCUGGAGUCUGAUACAUTT against Rbm5, for which the z-score was inactive: -1.41.
The figure for GGCAGAUCUAGGAUAGAAGTT against Fbxo44 is inactive: -0.253; for CCCACUUUCUUUGAUAACUTT against Bcl2l11 it is inactive: 0.467; for GGUCACUAGUGACAAAUGUTT against Fmo4 it is inactive: 0.801.
GGGUUUAUAAUUGGGAUGUTT against Vbp1: the z-score is inactive: 0.413.
The same measure for GGUGGAGAAGGCAUGAAGATT against Amn: inactive: 0.338.
The figure for GUACUUCACACCAGUUACATT against Olfr308 is inactive: 0.12; for CCAGCUUGUUACUAAGUAATT against Mgat3 it is inactive: -0.486; for GCACUGCAUAUUCCGCACUTT against Nubp2 it is inactive: -1.03.
The figure for GGUAAAAAGGGAUCACUCUTT against Igfbp7 is inactive: -0.151; for GGGUCUGCCGUCAUCCAUATT against Acp6 it is inactive: 1.48; for “GGCCCAGAACAGAAAACUCTT against 5930406N14Rik” it is inactive: -0.395.
As to “GGCGAGCAUCGCUAUUGACTT against 2700088M22Rik”, the z-score was inactive: 0.155.
The figure for GGUGCUCAGGAGGGAAUCUTT against LOC382137 is inactive: 1.85.
In the case of “CCUGUCAAUGAAACCAAGCTT against 2810437L13Rik”, the z-score was inactive: 0.0972.
For GGAAUACCUUGGAUGGCUATT against Nfe2l1, the z-score was inactive: 0.766.
The figure for “GGAUGAUGCUCGUUCUCAGTT against 4932422E22Rik” is inactive: 1.55.
In the case of CGUAACACUGCCUUUGAAUTT against Ube4b, the z-score was inactive: -0.534.
The figure for GGCUCAGGCAUUGUAACCATT against Dnm3 is inactive: -1.33; for GGCAGAGAAUUUUUUGUGGTT against Ddah1 it is inactive: 0.637.
